Data taken from patent US20260118369A1.
Results are given in words; binding and its absence hold for the method and conditions named. Some binding calls cover weakened binding; strength is not graded here. Each block holds one binder with its values, some of them ahead of it.

Amino acid sequences for entries named in this document (tags omitted). A change or cut given only in a name is not applied to a line headed by its entry. Residues count along the entry.
UniProt P12111, residues 3101-3177: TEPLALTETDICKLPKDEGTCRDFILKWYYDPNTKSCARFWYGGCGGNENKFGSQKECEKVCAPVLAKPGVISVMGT

Tests used:
[1] = molecular target: endotrophin recombinant protein (Sino Biologicals, Col6A3, catalog #16125-H07H) (human) (UniProt P12111); assay: sandwich ELISA, ETN4.1 as coated capture antibody
[2] = molecular target: human endotrophin as present in tissue and serum samples (human) (UniProt P12111); assay: ELISA of human serum samples
[3] = molecular target: endotrophin recombinant protein (Sino Biologicals, Col6A3, catalog #16125-H07H) (human) (UniProt P12111); assay: sandwich ELISA, ETN-1Rb as detection antibody

binding [1]: binds | binding [2]: binds
B1: ETN4.1 (antibody, V domains shown)
VH: EVQLLESGGGLVQPGGSLRLSCAASGFSFSSGYYICWVRQAPGKGLEWIACIYGGNNNPYYANWVNGRFTISRDNSKNTLYLQMNSLRAEDTAVYYCARKDINIGGAYELWGQGTLVTVSS
VL: DIQMTQSPSSLSASVGDRVTITCQASQSISSSYLSWYQQKPGKAPKLLIYKASTLASGVPSRFSGSGSGTDFTLTISSLQPEDFATYYCQYSDWANSYGNAFGGGTKVEIK

binding [3]: binds
B2: ETN-1Rb (antibody, V domains shown)
VH: QSVKESGGDLVKPGASLTLTCTASGIDFSAGYYMCWVRQAPGKGLELIACIYAGRSLNTFYASWAKGRFTISRASSTTVTLAMTSLTAADTATYFCARDGASSGYYFKLWGPGTLVTISS
VL: ELDMTQTPASVEVAVGGTVTIKCQASQSIGSNLAWYQQKPGQRPNVLIYDASNLASGVSSRFKGSGSGTQFTLTISGGECADAATYYCQQGYSDNYLDNAFGGGTEVVVK
